These results are taken from article PMC4877712.

Protein sequences, listed by entry. Tags and fused reporters are not part of them. Lines headed by an entry give the natural chain unless they say otherwise; changes in a name come on top.
UniProt P26718: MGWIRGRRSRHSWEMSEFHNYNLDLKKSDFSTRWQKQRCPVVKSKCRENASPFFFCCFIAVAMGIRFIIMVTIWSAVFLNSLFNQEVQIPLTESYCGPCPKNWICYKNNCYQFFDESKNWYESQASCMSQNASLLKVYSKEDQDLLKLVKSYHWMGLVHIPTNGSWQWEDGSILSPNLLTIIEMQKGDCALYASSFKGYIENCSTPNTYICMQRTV

The test concerns the target NKG2D (UniProt P26718). In words: SEC; ligand and NKG2D mixed at molar ratio 1:2 (0.8 nmol MICA + 1.6 nmol NKG2D; ULBP3 likewise), Superdex 75 10/300 on AktaFPLC; elution profile of the mixture compared with ligand alone and NKG2D alone; both purified.

Results are given in words; binding and its absence hold for the method and conditions named. Binding can be weak; no strength is given.

B1: MICA (ligand, UniProt Q29983 24-307)
chain: EPHSLRYNLTVLSWDGSVQSGFLTEVHLDGQPFLRCDRQKCRAKPQGQWAEDVLGNKTWDRETRDLTGNGKDLRMTLAHIKDQKEGLHSLQEIRVCEIHEDNSTRSSQHFYYDGELFLSQNLETKEWTMPQSSRAQTLAMNVRNFLKEDAMKTKTHYHAMHADCLQELRRYLKSGVVLRRTVPPMVNVTRSEASEGNITVTCRASGFYPWNITLSWRQDGVSLSHDTQQWGDVLPDGNGTYQTWVATRICQGEEQRFTCYMEHSGNHSTHPVPSGKVLVLQSHW
As for B1, the binding entry is “binds”.
